Data as given in PubChem BioAssay AID540276 (National Center for Advancing Translational Sciences (NCATS), 2011).
Hit rate of the full screen: of about 300,000 compounds, about 5,400 (1.8%) were called active. The inconclusive results got no clear call from the source; some entries with a clear call stand among them for comparison. The call rests on the fitted dose curve; tested in HEK293 cells. Potencies beside an inconclusive call are fits to weak or partial responses and may not hold up.

Assay: qHTS for inhibitors of binding or entry into cells for Marburg Virus
Settings: Marburg virus pseudotyped entry inhibition, cell reporter; activity change, negative = inhibition: at 37.8 µM (top of the series) unless noted
On the % scale 0 is the no-effect control and ±100 the full control effect; potency means the concentration at half of the fitted maximal effect.

Row | Structure (SMILES) | Potency | activity change, negative = inhibition
1 | CC(C)SC1=NC(C)(C)C=C(/C=C/c2ccc(Cl)cc2Cl)N1 | inconclusive: 25.1 µM [inhibitor, single point] | 
2 | O=C(O)CSc1ccc2ccccc2n1 | inconclusive: 35.5 µM [activator, partial curve, poor fit] | 
3 | Oc1cccc(/C=N/N(Cc2ccccc2)c2ccccc2)c1 |  | inactive: -7.3% [at 46.1 µM]
4 | Cc1cc(C)nc(NC2=NCC(=O)N2CCc2c[nH]c3ccccc23)n1 | inconclusive: 3.16 µM [inhibitor, partial curve, poor fit] | 
5 | Cc1ccc(S(=O)(=O)NCc2ccc(C(=O)NCCCN3CCC(Cc4ccccc4)CC3)cc2)cc1 | inconclusive: 35.5 µM [inhibitor, partial curve, poor fit] | 
6 | CC(=O)Oc1ccc2c(=O)c(Oc3ccccc3)coc2c1OC(C)=O | inconclusive: 25.1 µM [inhibitor, single point] | 
7 | N#CCCn1cc(/C=N/O)c(-c2ccc(F)cc2)n1 | inconclusive: 7.08 µM [inhibitor, partial curve, poor fit] | 
8 | CC(Oc1ccc(Br)cc1)C(=O)Nc1nc(-c2ccccn2)cs1 (stereo unspecified) | inconclusive: 11.2 µM [inhibitor, partial curve, poor fit] | 
9 | CC1CCc2c(sc3nc(-c4cc5ccccc5oc4=O)nc(Cl)c23)C1 (stereo unspecified) |  | inactive: 22.9% [at 46.1 µM]
10 | O=C(NC1CC1)c1cc2c(F)cccc2s1 |  | inactive: -22.6% [at 46.1 µM]
11 | COc1cc2nc(N3CCCN(C)CC3)nc(NC3CCN(Cc4ccccc4)CC3)c2cc1OC | inconclusive: 1.3 µM [inhibitor, full curve] | 
12 | Nn1c(=O)[nH]c2c([nH]c3ccccc32)c1=O |  | inactive: 5.2% [at 46.1 µM]
13 | CN(C)CCCN(C(=O)COc1ccc(Cl)cc1)c1nc2cc3c(cc2s1)OCO3 | inconclusive: 35.5 µM [inhibitor, single point] | 
14 | O=C(N/N=C/c1cc(O)ccc1[N+](=O)[O-])c1ccc2c(c1)OCCO2 | inconclusive: 12.6 µM [inhibitor, single point] | 
15 | COc1cc(CN2CCCC(CO)(Cc3ccccc3C)C2)cc2c1OCO2 (stereo unspecified) | inconclusive: 6.31 µM [inhibitor, partial curve, poor fit] | 
16 | O=S(=O)(c1cccc2cccnc12)n1cnc2ccccc21 | inconclusive: 25.1 µM [inhibitor, single point] | 
17 | Cc1ccc(C2(C(F)(F)F)NC(=O)N3CCN=C3S2)cc1 (stereo unspecified) | inconclusive: 23.1 µM [inhibitor, single point] | 
18 | COc1ccc(Nc2nc(-c3ccccc3O)nc3ccccc23)cc1 | inconclusive: 7.08 µM [inhibitor, full curve, poor fit] | 
19 | CCOc1cc(N2CCOCC2)c(OCC)cc1NC(=O)CN1C(=O)NC(CC)(c2ccc(F)cc2)C1=O (stereo unspecified) |  | inactive: 4.97%
20 | CC(C)[C@H]1COCCS(=O)(=O)N1Cc1ccccc1-c1ccccc1 | inconclusive: 1.41 µM [inhibitor, full curve, poor fit] | 
21 | COc1ccc(-n2c(C)cc(C(=O)COC(=O)c3cc(OC)c(OC)cc3NC(=O)c3cccs3)c2C)cc1 | inconclusive: 6.31 µM [inhibitor, partial curve, poor fit] | 

Row | Structure (SMILES) | Potency | activity change, negative = inhibition
22 | Cc1cc(NC(=O)CS(=O)CC(=O)Nc2c(C)cccc2C)ccc1-n1cnnn1 (stereo unspecified) | inconclusive: 10 µM [inhibitor, partial curve, poor fit] | 
23 | CC(C)(C)CC(C)(C)NC(=S)NC1CCN(Cc2ccccc2)CC1 | inconclusive: 12.6 µM [inhibitor, partial curve, poor fit] | 
24 | COc1ccc(OC)c(/C=N\NC(=O)CSc2nnc(CCCc3ccc(OC)c(C)c3)o2)c1 |  | inactive: -4.89%
25 | CC(C)CC(CO)N1CCN(C(=O)c2ccc(C(C)(C)C)cc2)CCC1=O (stereo unspecified) | inconclusive: 0.0731 µM [activator, full curve, poor fit] | 
26 | O=C1CCC([N+](=O)[O-])C(c2ccc(Br)cc2)N1 (stereo unspecified) | inconclusive: 5.62 µM [inhibitor, single point] | 
27 | CCN(CC)S(=O)(=O)c1ccc(NC(=O)C2CCCN(C(=O)c3ccc(Cl)cc3)C2)cc1 (stereo unspecified) | inconclusive: 3.16 µM [inhibitor, partial curve] | 
28 | COc1cccc(NC(=O)c2oc3ccccc3c2NC(C)=O)c1 | inconclusive: 2.06 µM [activator, partial curve, poor fit] | 
29 | CCOC(=O)CN1C(=O)[C@@]2(CC(C)=CC[C@@H](COc3ccccc3)O2)c2ccccc21 |  | inactive: -19.5% [at 14.2 µM]
30 | CN(Cc1ccccc1)C(=O)c1ccccc1Br | inconclusive: 0.0046 µM [inhibitor, full curve, poor fit] | 
31 | O=C(NCCCN1CCOCC1)c1cc2ccccc2cc1O |  | inactive: 0.0371%
32 | CCOC(=O)c1ccc(NC(=O)CSc2cc(-c3ccccc3)nc(C)n2)cc1 | inconclusive: 28.2 µM [inhibitor, single point] | 
33 | Cc1cccc2cc(C#N)c(SCC(=O)N3CCC(C)CC3)nc12 |  | inactive: 4.16%
34 | Cc1ccccc1-c1nc(CS(=O)CC(=O)NCCCN(C)c2ccccc2)c(C)o1 (stereo unspecified) | inconclusive: 29.1 µM [inhibitor, single point] | 
35 | Cc1ccc(C(=O)Nc2ccc(C(=O)N/N=C/c3ccc(C)o3)cc2)cc1 | inconclusive: 3.16 µM [activator, full curve, poor fit] | 
36 | O=[N+]([O-])c1ccc2c(c1)OCCOCCOCCOCCOCCOCCO2 | inconclusive: 29.1 µM [inhibitor, single point] | 
37 | Cc1ccc(-c2nnc(-c3ccccc3)c(N3CCOCC3)n2)cc1 | inconclusive: 23.1 µM [inhibitor, partial curve, poor fit] | 
38 | CCOc1ccc(S(=O)(=O)N2CCCC(C(=O)N3CCN(c4ccccc4)CC3)C2)cc1 (stereo unspecified) | inconclusive: 20 µM [inhibitor, partial curve, poor fit] | 
39 | COC(=O)c1cccc(NC(=O)c2cc3sccc3n2C)c1 |  | inactive: 14%
40 | CC(C)SC1=NC(C)(C)C=C(/C=C/c2c(Cl)cccc2Cl)N1 | inconclusive: 22.4 µM [inhibitor, single point] | 
41 | CCc1noc(C)c1C(=O)Nc1ccc(C)c(S(=O)(=O)N2CCCCCC2)c1 | inconclusive: 35.5 µM [inhibitor, partial curve, poor fit] | 

Compounds 27–35 of the list above:
Row | Structure (SMILES) | Potency | activity change, negative = inhibition
27 | CCN(CC)S(=O)(=O)c1ccc(NC(=O)C2CCCN(C(=O)c3ccc(Cl)cc3)C2)cc1 (stereo unspecified) | inconclusive: 3.16 µM [inhibitor, partial curve] | 
28 | COc1cccc(NC(=O)c2oc3ccccc3c2NC(C)=O)c1 | inconclusive: 2.06 µM [activator, partial curve, poor fit] | 
29 | CCOC(=O)CN1C(=O)[C@@]2(CC(C)=CC[C@@H](COc3ccccc3)O2)c2ccccc21 |  | inactive: -19.5% [at 14.2 µM]
30 | CN(Cc1ccccc1)C(=O)c1ccccc1Br | inconclusive: 0.0046 µM [inhibitor, full curve, poor fit] | 
31 | O=C(NCCCN1CCOCC1)c1cc2ccccc2cc1O |  | inactive: 0.0371%
32 | CCOC(=O)c1ccc(NC(=O)CSc2cc(-c3ccccc3)nc(C)n2)cc1 | inconclusive: 28.2 µM [inhibitor, single point] | 
33 | Cc1cccc2cc(C#N)c(SCC(=O)N3CCC(C)CC3)nc12 |  | inactive: 4.16%
34 | Cc1ccccc1-c1nc(CS(=O)CC(=O)NCCCN(C)c2ccccc2)c(C)o1 (stereo unspecified) | inconclusive: 29.1 µM [inhibitor, single point] | 
35 | Cc1ccc(C(=O)Nc2ccc(C(=O)N/N=C/c3ccc(C)o3)cc2)cc1 | inconclusive: 3.16 µM [activator, full curve, poor fit] | 
